Some of the results follow. Repeats are few or missing, and single values can be far off.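 Imaging used 1,536-well plates; nuclei positive for cleaved PARP by antibody were divided by total DNA-stained nuclei to yield the apoptosis fraction. Doses for screening kept most cells viable, and cell lines differ markedly in resting and induced cleaved-PARP levels.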
Columns and labels:
Assay in all cases: cleaved PARP positive nuclei fraction relative to DMSO control; melanoma cells; higher = more apoptosis
Conditions in all cases: library dose: low library concentration; 72 h
WM115 = system: WM115
WM1716 = system: WM1716
WM1745 = system: WM1745
WM3526 = system: WM3526
WM3619 = system: WM3619
WM451Lu = system: WM451Lu

Structure (SMILES) | cleaved PARP positive nuclei fraction (WM115) [%] | cleaved PARP positive nuclei fraction (WM1716) [%] | cleaved PARP positive nuclei fraction (WM1745) [%] | cleaved PARP positive nuclei fraction (WM3526) [%] | cleaved PARP positive nuclei fraction (WM3619) [%] | cleaved PARP positive nuclei fraction (WM451Lu) [%]
C=CCn1c(=O)c2cnc(Nc3ccc(N4CCN(C)CC4)cc3)nc2n1-c1cccc(C(C)(C)O)n1 + Cc1cc(SCc2sc(-c3ccc(C(F)(F)F)c(F)c3)nc2C)ccc1OCC(=O)O [GW0742] (first compound 0.02 µM, partner dose 2 µM) | 178 | 130 | 119 | 97.8 | 91.3 | 105
C[C@]12O[C@H](C[C@]1(O)CO)n1c3ccccc3c3c4c(c5c6ccccc6n2c5c31)CNC4=O [Lestaurtinib] + CC(C)CCN1c2nc(Nc3cc(F)c(O)c(F)c3)ncc2N(C)C(=O)C1C [BID1870] (first compound 0.004 µM, partner dose 0.2 µM) | 226 | 36.9 | 82.2 | 186 | 86 | 104
Cc1cc(SCc2sc(-c3ccc(C(F)(F)F)c(F)c3)nc2C)ccc1OCC(=O)O + COc1cc2ncnc(Nc3ccc(Oc4ccccc4)cc3)c2cc1OC [SrcI1] (first compound 2 µM, partner dose 2 µM) | 46.3 | 40 | 116 | 49.4 | 89.6 | 56
Cc1cc(SCc2sc(-c3ccc(C(F)(F)F)c(F)c3)nc2C)ccc1OCC(=O)O + Oc1nc(-c2ccc(C(F)(F)F)cc2)nc2c1CSCC2 [XAV939] (first compound 2 µM, partner dose 2 µM) | 144 | 442 | 111 | 66.7 | 92.7 | 41.6
C=CCn1c(=O)c2cnc(Nc3ccc(N4CCN(C)CC4)cc3)nc2n1-c1cccc(C(C)(C)O)n1 + O=C(Oc1ccc([N+](=O)[O-])cc1)N1CCC(C(O)(c2ccc3c(c2)OCO3)c2ccc3c(c2)OCO3)CC1 [JZL184] (first compound 0.02 µM, partner dose 1 µM) | 106 | 284 | 124 | 56.1 | 202 | 55
CNC(=O)c1cc(Oc2ccc(NC(=O)Nc3ccc(Cl)c(C(F)(F)F)c3)cc2)ccn1 [sorafenib] + C/C(O)=C(\C#N)C(=O)Nc1cc(Br)ccc1Br [LFM-A13] (first compound 0.4 µM, partner dose 2 µM) | 115 | 171 | 98.3 | 374 | 92 | 667
C[C@@H]1CCN(C(=O)CC#N)C[C@@H]1N(C)c1ncnc2[nH]ccc12 + O=C(Oc1ccc([N+](=O)[O-])cc1)N1CCC(C(O)(c2ccc3c(c2)OCO3)c2ccc3c(c2)OCO3)CC1 [JZL184] (first compound 1 µM, partner dose 1 µM) | 92.2 | 127 | 104 | 66.4 | 66.4 | 116
C[As](C)SC[C@H](NC(=O)CC[C@H](N)C(=O)O)C(=O)NCC(=O)O [Darinaparsin] + CC(C)(C)c1cnc(CSc2cnc(NC(=O)C3CCNCC3)s2)o1 [SNS-032] (first compound 0.4 µM, partner dose 0.01 µM) | 75.7 | 185 | 110 | 66.1 | 105 | 322
Nc1cccc2c1CN(C1CCC(=O)NC1=O)C2=O (centres undefined) [lenalidomide] + C/C(O)=C(\C#N)C(=O)Nc1cc(Br)ccc1Br [LFM-A13] (first compound 1 µM, partner dose 2 µM) | 206 | 134 | 99.1 | 77.8 | 68.3 | 136
Cn1cc(C2=C(c3cn(C4CCN(Cc5ccccn5)CC4)c4ccccc34)C(=O)NC2=O)c2ccccc21 [Enzastaurin] + C[C@]12O[C@H](C[C@]1(O)CO)n1c3ccccc3c3c4c(c5c6ccccc6n2c5c31)CNC4=O [Lestaurtinib] (first compound 0.8 µM, partner dose 0.004 µM) | 70.7 | 96.1 | 236 | 46.9 | 91.9 | 255
N.N.[Cl][Pt][Cl] [cisplatin] + O=C1NC(=O)/C(=C/c2ccc(-c3ccc(F)cc3O)o2)S1 [AS252424] (first compound 1.6 µM, partner dose 1 µM) | 51.9 | 69.1 | 99.1 | 85.1 | 79.1 | 85
Cn1c(Nc2ccc(C(F)(F)F)cc2)nc2cc(Oc3ccnc(-c4ncc(C(F)(F)F)[nH]4)c3)ccc21 + C/C(O)=C(\C#N)C(=O)Nc1cc(Br)ccc1Br [LFM-A13] (first compound 0.08 µM, partner dose 2 µM) | 946 | 200 | 164 | 56.8 | 163 | 277
COc1cc2c(Oc3ccc4[nH]c(C)cc4c3F)ncnc2cc1OCCCN1CCCC1 [cediranib] + C/C(O)=C(\C#N)C(=O)Nc1cc(Br)ccc1Br [LFM-A13] (first compound 0.4 µM, partner dose 2 µM) | 213 | 45 | 99.3 | 44.2 | 73.8 | 84
Cc1cn(-c2cc(NC(=O)c3ccc(C)c(Nc4nccc(-c5cccnc5)n4)c3)cc(C(F)(F)F)c2)cn1 [nilotinib] + Cc1cc(SCc2sc(-c3ccc(C(F)(F)F)c(F)c3)nc2C)ccc1OCC(=O)O [GW0742] (first compound 0.2 µM, partner dose 2 µM) | 80.1 | 125 | 111 | 108 | 102 | 63.1
Cn1cc(C2=C(c3cn(C4CCN(Cc5ccccn5)CC4)c4ccccc34)C(=O)NC2=O)c2ccccc21 [Enzastaurin] + Cn1sc(=O)n(Cc2ccccc2)c1=O [TDZD-8] (first compound 0.8 µM, partner dose 0.4 µM) | 51.2 | 117 | 91.8 | 33.7 | 77.3 | 105
Cn1cc(C2=C(c3cn(C4CCN(Cc5ccccn5)CC4)c4ccccc34)C(=O)NC2=O)c2ccccc21 [Enzastaurin] + OCCn1cc(-c2cnc3nnn(Cc4ccc5ncccc5c4)c3n2)cn1 [PF04217903] (first compound 0.8 µM, partner dose 1 µM) | 147 | 77.5 | 97.1 | 48.9 | 77.2 | 95.4
CC[C@]1(O)C[C@H]2CN(CCc3c([nH]c4ccccc34)[C@@](C(=O)OC)(c3cc4c(cc3OC)N(C=O)[C@H]3[C@@](O)(C(=O)OC)[C@H](OC(C)=O)[C@]5(CC)C=CCN6CC[C@]43[C@@H]65)C2)C1 [vincristine] + Cc1cc(SCc2sc(-c3ccc(C(F)(F)F)c(F)c3)nc2C)ccc1OCC(=O)O [GW0742] (first compound 0.0001 µM, partner dose 2 µM) | 355 | 76.6 | 102 | 85 | 158 | 30.4
C[C@]12O[C@H](C[C@]1(O)CO)n1c3ccccc3c3c4c(c5c6ccccc6n2c5c31)CNC4=O [Lestaurtinib] + Cn1cc(/C=C2\C(=O)Nc3cccnc32)c2ccccc21 [GW441756] (first compound 0.004 µM, partner dose 0.4 µM) | 90.8 | 80.8 | 227 | 310 | 159 | 137
COc1cc([C@@H]2c3cc4c(cc3[C@@H](O[C@@H]3O[C@@H]5CO[C@@H](C)O[C@H]5[C@H](O)[C@H]3O)[C@H]3COC(=O)[C@H]23)OCO4)cc(OC)c1O [etoposide] + C[C@]12O[C@H](C[C@]1(O)CO)n1c3ccccc3c3c4c(c5c6ccccc6n2c5c31)CNC4=O [Lestaurtinib] (first compound 0.02 µM, partner dose 0.004 µM) | 123 | 96.7 | 96.3 | 38.9 | 85.1 | 91.3
NCC(=O)Nc1ccc(-n2nc(C(F)(F)F)cc2-c2ccc3c(ccc4ccccc43)c2)cc1 + Cc1cc(SCc2sc(-c3ccc(C(F)(F)F)c(F)c3)nc2C)ccc1OCC(=O)O [GW0742] (first compound 1 µM, partner dose 2 µM) | 141 | 200 | 180 | 144 | 86 | 202
N.N.[Cl][Pt][Cl] [cisplatin] + COc1cc(N2CCC(N3CCN(C)CC3)CC2)ccc1Nc1ncc(Cl)c(Nc2ccccc2S(=O)(=O)C(C)C)n1 [NVP-TAE684] (first compound 1.6 µM, partner dose 0.08 µM) | 147 | 53.5 | 116 | 98.3 | 144 | 72.6
Cc1cc(Nc2cc(N3CCN(C)CC3)nc(/C=C/c3ccccc3)n2)n[nH]1 + C[As](C)SC[C@H](NC(=O)CC[C@H](N)C(=O)O)C(=O)NCC(=O)O [Darinaparsin] (first compound 0.04 µM, partner dose 0.4 µM) | 189 | 70.4 | 119 | 139 | 72.5 | 96.6
C[C@]12O[C@H](C[C@]1(O)CO)n1c3ccccc3c3c4c(c5c6ccccc6n2c5c31)CNC4=O [Lestaurtinib] + CN(C)S(=O)(=O)c1ccc2c(c1)/C(=C/c1cc3c([nH]1)CCCC3)C(=O)N2 [SU6656] (first compound 0.004 µM, partner dose 0.4 µM) | 414 | 53.6 | 109 | 81 | 92.7 | 146
N.N.[Cl][Pt][Cl] [cisplatin] + Nc1nc(F)nc2c1ncn2[C@@H]1O[C@H](CO)[C@@H](O)[C@@H]1O [fludarabine] (first compound 1.6 µM, partner dose 0.2 µM) | 582 | 80.2 | 255 | 1180 | 85.3 | 165

Whole records, quoted from the list:
C[As](C)SC[C@H](NC(=O)CC[C@H](N)C(=O)O)C(=O)NCC(=O)O [Darinaparsin] + CC(C)(C)c1cnc(CSc2cnc(NC(=O)C3CCNCC3)s2)o1 [SNS-032] (first compound 0.4 µM, partner dose 0.01 µM) in the list: cleaved PARP positive nuclei fraction (WM115) [%]: 75.7; cleaved PARP positive nuclei fraction (WM1716) [%]: 185; cleaved PARP positive nuclei fraction (WM1745) [%]: 110; cleaved PARP positive nuclei fraction (WM3526) [%]: 66.1; cleaved PARP positive nuclei fraction (WM3619) [%]: 105; cleaved PARP positive nuclei fraction (WM451Lu) [%]: 322
COc1cc2c(Oc3ccc4[nH]c(C)cc4c3F)ncnc2cc1OCCCN1CCCC1 [cediranib] + C/C(O)=C(\C#N)C(=O)Nc1cc(Br)ccc1Br [LFM-A13] (first compound 0.4 µM, partner dose 2 µM) in the list: cleaved PARP positive nuclei fraction (WM115) [%]: 213; cleaved PARP positive nuclei fraction (WM1716) [%]: 45; cleaved PARP positive nuclei fraction (WM1745) [%]: 99.3; cleaved PARP positive nuclei fraction (WM3526) [%]: 44.2; cleaved PARP positive nuclei fraction (WM3619) [%]: 73.8; cleaved PARP positive nuclei fraction (WM451Lu) [%]: 84

— the supplement of paper PMC4604168 (melanoma cell lines)
